Experimental data taken from article PMC12504162.
No constants are given. Whether binding was seen depends on the method and setting. In cells and extracts the contact can be indirect. Some results given as binding are weak or reduced against the parent protein; the word gives no strength.

Sequences of proteins named here, by UniProt entry; tags and fusion partners are left off. A change or cut given only in a name is not applied to a line headed by its entry.
UniProt P0C0S5: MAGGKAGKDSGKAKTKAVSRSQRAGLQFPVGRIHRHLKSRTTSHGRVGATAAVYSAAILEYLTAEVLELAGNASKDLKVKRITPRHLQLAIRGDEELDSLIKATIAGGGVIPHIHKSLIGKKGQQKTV
UniProt Q13547: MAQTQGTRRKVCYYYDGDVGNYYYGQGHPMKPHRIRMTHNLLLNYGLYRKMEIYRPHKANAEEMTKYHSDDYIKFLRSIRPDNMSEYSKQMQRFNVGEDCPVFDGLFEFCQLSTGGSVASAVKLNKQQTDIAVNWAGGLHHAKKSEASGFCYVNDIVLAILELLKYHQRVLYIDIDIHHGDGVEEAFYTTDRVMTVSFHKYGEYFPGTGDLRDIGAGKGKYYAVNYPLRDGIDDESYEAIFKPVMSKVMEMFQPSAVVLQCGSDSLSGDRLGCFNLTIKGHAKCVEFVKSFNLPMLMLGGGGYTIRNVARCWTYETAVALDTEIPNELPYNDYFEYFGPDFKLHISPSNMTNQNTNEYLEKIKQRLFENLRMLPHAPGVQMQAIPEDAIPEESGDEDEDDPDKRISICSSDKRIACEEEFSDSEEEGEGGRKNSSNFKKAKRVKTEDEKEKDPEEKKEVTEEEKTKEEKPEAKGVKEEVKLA

Molecular target: histone variant H2AFZ (human (endogenous in PDLSCs)) (UniProt P0C0S5)
Experiment: co-IP; lysates of PDLSCs after 3 days of osteogenic induction, in co-IP buffer; incubated with HDAC1 antibody or H2AFZ antibody overnight at 4 °C, magnetic beads 2 h at 4 °C, three washes, Western blot

- binding: binds
Substance: HDAC1 (from UniProt Q13547 1-482) (enzyme)
